Results are given in words; binding and its absence hold for the method and conditions named. Binding can be weak; no strength is given.
Target: T1, A2M^3K, recombinant A2M with the Arg704Lys, Arg715Lys and Arg719Lys mutations (human) (UniProt P01023)
T1 sequence: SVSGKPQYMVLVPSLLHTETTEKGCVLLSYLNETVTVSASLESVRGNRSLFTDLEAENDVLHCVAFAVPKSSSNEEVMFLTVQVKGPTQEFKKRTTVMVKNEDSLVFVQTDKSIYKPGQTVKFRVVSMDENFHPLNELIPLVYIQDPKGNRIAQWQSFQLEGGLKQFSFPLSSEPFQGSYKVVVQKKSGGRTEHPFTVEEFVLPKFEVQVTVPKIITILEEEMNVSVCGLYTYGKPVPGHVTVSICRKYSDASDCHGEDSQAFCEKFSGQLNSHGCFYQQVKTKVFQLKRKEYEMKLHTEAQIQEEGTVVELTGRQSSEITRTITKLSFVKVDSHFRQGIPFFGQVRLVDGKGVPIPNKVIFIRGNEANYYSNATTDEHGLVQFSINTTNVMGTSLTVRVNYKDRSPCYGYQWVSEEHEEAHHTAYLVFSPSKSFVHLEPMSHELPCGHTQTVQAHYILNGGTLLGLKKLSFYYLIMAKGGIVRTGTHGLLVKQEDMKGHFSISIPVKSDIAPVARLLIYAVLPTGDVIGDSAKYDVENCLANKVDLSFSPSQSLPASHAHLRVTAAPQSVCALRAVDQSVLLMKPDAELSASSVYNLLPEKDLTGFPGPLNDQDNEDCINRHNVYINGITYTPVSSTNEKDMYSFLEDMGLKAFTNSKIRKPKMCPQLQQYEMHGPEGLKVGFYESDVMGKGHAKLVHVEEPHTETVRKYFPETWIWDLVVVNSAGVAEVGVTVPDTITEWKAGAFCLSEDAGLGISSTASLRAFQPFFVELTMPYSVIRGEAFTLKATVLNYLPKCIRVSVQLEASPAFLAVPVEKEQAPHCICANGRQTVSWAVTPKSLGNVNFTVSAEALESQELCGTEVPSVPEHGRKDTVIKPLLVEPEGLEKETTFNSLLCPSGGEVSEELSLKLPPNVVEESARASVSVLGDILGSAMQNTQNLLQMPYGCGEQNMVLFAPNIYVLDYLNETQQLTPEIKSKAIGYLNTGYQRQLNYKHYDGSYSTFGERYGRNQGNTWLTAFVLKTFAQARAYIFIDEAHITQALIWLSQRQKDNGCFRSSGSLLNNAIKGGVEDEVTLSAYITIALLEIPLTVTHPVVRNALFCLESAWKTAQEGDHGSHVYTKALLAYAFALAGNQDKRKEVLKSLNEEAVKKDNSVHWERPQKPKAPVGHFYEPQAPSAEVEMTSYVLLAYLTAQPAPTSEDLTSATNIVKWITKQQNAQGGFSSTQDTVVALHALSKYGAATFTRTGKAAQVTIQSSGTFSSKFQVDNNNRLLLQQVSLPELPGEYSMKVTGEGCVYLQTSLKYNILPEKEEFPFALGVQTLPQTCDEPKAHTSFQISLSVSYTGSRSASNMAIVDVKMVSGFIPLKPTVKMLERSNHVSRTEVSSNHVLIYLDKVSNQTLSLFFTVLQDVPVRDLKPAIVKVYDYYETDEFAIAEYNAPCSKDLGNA
Test: reducing SDS-PAGE of covalent protease conjugates; A2M incubated with protease; covalent conjugation through the thiol ester seen on reducing SDS-PAGE; both purified

binding: binds
Substance: LysC, a lysine-specific protease (enzyme)

Source: publication PMC8167298, “Structural Investigations of Human A2M Identify a Hollow Native Conformation That Underlies Its Distinctive Protease-Trapping Mechanism” (Molecular & Cellular Proteomics : MCP, 2021)
